In the supplement of paper PMC3334620:
In all, about 33,000 sequences were measured (“E-score (-0.5 to 0.5)”: median about -0.0014, highest 2% from about 0.25 on). The list shows a part of the results.

target: T1, Cad1 (UniProt P24813); experiment: PBM E-score (8-mer binding enrichment) (E-score (-0.5 to 0.5)); higher = stronger / more preferred TF binding; details: protein concentration: 100 nM; construct: GST-full length
T1 sequence: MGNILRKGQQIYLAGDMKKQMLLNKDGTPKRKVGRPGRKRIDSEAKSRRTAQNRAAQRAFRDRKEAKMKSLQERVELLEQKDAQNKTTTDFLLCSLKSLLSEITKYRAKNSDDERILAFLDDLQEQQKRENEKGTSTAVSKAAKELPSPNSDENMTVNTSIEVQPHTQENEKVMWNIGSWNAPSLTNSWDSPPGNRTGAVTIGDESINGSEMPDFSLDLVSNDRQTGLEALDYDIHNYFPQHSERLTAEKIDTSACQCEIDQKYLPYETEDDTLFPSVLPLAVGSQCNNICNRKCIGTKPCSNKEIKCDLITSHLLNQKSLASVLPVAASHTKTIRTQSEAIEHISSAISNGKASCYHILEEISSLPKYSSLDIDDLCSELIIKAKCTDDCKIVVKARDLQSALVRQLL
Summary of the method: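 Each ungapped eight-base word and its reverse complement, pooled, received an E-score from the Universal PBM Analysis Suite. Underlying scans, normalised with masliner, recorded fluorescent anti-GST bound to GST-tagged yeast transcription factors. These were applied at about 100-200 nM to universal all-10-mer Agilent arrays double-stranded by primer extension.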

| Sequence | PBM E-score |
| --- | --- |
| ATACGGTC | -0.0195 |
| ATTGCGCA | 0.103 |
| ATTGGTTC | 0.2 |
| CGAAGCTC | -0.231 |
| TACCACGA | -0.00517 |
| GGACTCGA | -0.177 |
| CTAACCGA | 0.00683 |
| CTCTCTGA | -0.0154 |
| CATTGTTA | 0.0137 |
| ATCTTGTC | -0.00385 |
| CCTTCGCG | -0.0493 |
| CGCATGGA | -0.0928 |
| CATTATGG | -0.0774 |
| GGAACCCA | -0.0053 |
| CATTCCAG | -0.144 |
| ATGTGGCC | -0.0491 |
| AGTGTGGC | 0.119 |
| AGAAGGAG | -0.228 |
| ATGGCCGG | -0.0669 |
| CCCGCTCA | -0.116 |
| GAGTGATA | 0.17 |
| AACGCCAA | 0.00194 |
| AGCAATCG | 0.27 |
| CAATTGGG | -0.0709 |
| GACTGGCA | -0.152 |

| Sequence | PBM E-score |
| --- | --- |
| ACCCAATC | -0.0256 |
| AGAACCAA | -0.131 |
| AGGATTGA | 0.101 |
| CTGGGCGC | -0.141 |
| ACTCACAC | -0.0995 |
| AACAGAGG | -0.145 |
| GTCCAAAC | -0.263 |
| CGTACGTC | -0.112 |
| GTACCATA | -0.158 |
| AGAGGTTG | -0.229 |
| AAATAGAC | 0.0409 |
| AAGCAACA | 0.0972 |
| CAGGGTGC | -0.3 |
| CCGTCCGC | -0.116 |
| GATGAGAA | 0.108 |
| ATAAAGCG | 0.149 |
| AGTTCGCG | 0.00326 |
| GGGCCGAA | -0.0979 |
| AAACTTGT | 0.112 |
| CGATCTCA | 0.0727 |
| ATCCGCAT | 0.105 |
| CTAGAACC | -0.136 |
| CATGAAGC | -0.0276 |
| AACGCCCG | 0.059 |
| ACATTGCA | 0.00028 |

| Sequence | PBM E-score |
| --- | --- |
| ACGTTCTG | 0.041 |
| CCCCGAGG | -0.225 |
| CGGTTAGA | 0.058 |
| GCTCGAAC | 0.123 |
| AGTCAAGG | -0.0898 |
| ACACTTAC | 0.108 |
| CCAGGACA | 0.0769 |
| TATGTTGA | 0.0773 |
| GACGTCCA | 0.0674 |
| ACGCAATA | 0.184 |
| GATGGTCC | -0.119 |
| GGCTCCAC | -0.182 |
| GCGAGGAA | 0.0172 |
| ATTTGTAA | 0.411 |
| CAGCCCTA | 0.147 |
| AATATATA | 0.244 |
| CTAACAGC | -0.0641 |
| TCGTCCCA | 0.0795 |
| ATAGCCGA | 0.0529 |
| AACGCAGT | -0.0676 |
| GGGATCTA | -0.138 |
| GGGTTCAC | 0.0111 |
| GAGTATCC | -0.0156 |
| ATGCTGTA | 0.114 |
| CATAGACC | -0.0068 |

As entered above.
GGCTCCAC | PBM E-score: -0.182
GGGATCTA | PBM E-score: -0.138
AATATATA | PBM E-score: 0.244
CCCCGAGG | PBM E-score: -0.225
CAGCCCTA | PBM E-score: 0.147

Continued.

| Sequence | PBM E-score |
| --- | --- |
| GAGTATCA | -0.045 |
| TCGCATCA | 0.0674 |
| CAGTAGTA | 0.00735 |
| ATGATCAG | 0.026 |
| CTCAGTGA | -0.138 |
| AAGTGCTC | -0.189 |
| GCTGTAGA | -0.0692 |
| ACAATTCT | 0.0787 |
| ACCACCAA | -0.0937 |
| ATGTGAAA | 0.0841 |
| CTTGTAAA | 0.0275 |
| GCAGGGAA | 0.0366 |
| CTTCTACA | -0.151 |
| CGCCAACA | 0.157 |
| GGGGAGGA | -0.117 |
| AAAACCGT | 0.069 |
| AATCGGAA | 0.211 |
| AGCTTCCT | 0.177 |
| AGTAATGG | 0.144 |
| ATGGTTGG | -0.0997 |
| GAACCTTA | 0.127 |
| AGGACCCG | -0.169 |
| ATTTCGTG | 0.202 |
| ATCCACGC | 0.00304 |
| GTAATGAC | 0.133 |

| Sequence | PBM E-score |
| --- | --- |
| GTTTTACA | -0.156 |
| CTCTATTC | -0.00496 |
| CTTCTCAA | -0.089 |
| ACGTGCTA | -0.0919 |
| CACTGCGA | 0.0309 |
| CAATTCGC | 0.322 |
| GTAAGAGA | -0.125 |
| CTGGGTTC | -0.0104 |
| AGGAGACA | -0.0212 |
| ACCTTTAT | -0.152 |
| GCGTACCC | -0.157 |
| GTCTAAGA | 0.151 |
| GTAGGTTA | -0.0515 |
| GCATCGGC | -0.0762 |
| GGCGGAGA | 0.0169 |
| CGCGTTGA | 0.158 |
| CCGAAGAC | -0.0256 |
| GGAAGCCC | -0.23 |
| CTCTAGCC | -0.152 |
| ATCCAGGC | -0.127 |
| AACCCGAG | 0.122 |
| CTCGCCGC | 0.106 |
| CGTAGAGA | -0.0362 |
| ACCGGAGA | 0.0736 |
| GCCCTCAA | -0.256 |

A different layout for part of the listing above.
Sequence	PBM E-score
ATGCTGTA	0.114
CATAGACC	-0.0068
GAGTATCA	-0.045
TCGCATCA	0.0674
CAGTAGTA	0.00735
ATGATCAG	0.026
CTCAGTGA	-0.138
AAGTGCTC	-0.189
GCTGTAGA	-0.0692
ACAATTCT	0.0787
ACCACCAA	-0.0937
ATGTGAAA	0.0841
CTTGTAAA	0.0275
GCAGGGAA	0.0366
CTTCTACA	-0.151
CGCCAACA	0.157
GGGGAGGA	-0.117
AAAACCGT	0.069
AATCGGAA	0.211
AGCTTCCT	0.177
AGTAATGG	0.144
ATGGTTGG	-0.0997
GAACCTTA	0.127
AGGACCCG	-0.169
ATTTCGTG	0.202
ATCCACGC	0.00304
GTAATGAC	0.133
GTTTTACA	-0.156
CTCTATTC	-0.00496
CTTCTCAA	-0.089
ACGTGCTA	-0.0919
CACTGCGA	0.0309
CAATTCGC	0.322
GTAAGAGA	-0.125
CTGGGTTC	-0.0104
AGGAGACA	-0.0212
ACCTTTAT	-0.152
GCGTACCC	-0.157
GTCTAAGA	0.151
GTAGGTTA	-0.0515
GCATCGGC	-0.0762
GGCGGAGA	0.0169
CGCGTTGA	0.158
CCGAAGAC	-0.0256
GGAAGCCC	-0.23
CTCTAGCC	-0.152
ATCCAGGC	-0.127
AACCCGAG	0.122
CTCGCCGC	0.106
CGTAGAGA	-0.0362

The list continues:

| Sequence | PBM E-score |
| --- | --- |
| CTGTCGTA | -0.188 |
| CGATATAC | -0.00158 |
| GGTCCCTA | -0.242 |
| GACGCGTC | 0.0124 |
| CGGCTAAA | -0.0162 |
| ACTAGAAG | -0.175 |
| GTTCCGTA | 0.226 |
| AGGATGCG | -0.0999 |
| AAAAAGAT | 0.0116 |
| AGGAAGTA | -0.0785 |
| CTCCCCGC | 0.0619 |
| AACATGCG | 0.0846 |
| CCTAACGA | -0.0196 |
| AAAAGGGA | -0.24 |
| AAACACTA | 0.162 |
| GTATACCA | -0.0671 |
| GGCCCCGA | -0.124 |
| GAACCAGA | -0.0574 |
| AGATAGAG | 0.0226 |
| CAAGTTCC | -0.0154 |
| AAGTAGCG | -0.115 |
| CGGTCAAG | -0.0739 |
| ACGCATCA | 0.133 |
| CAGTTGAA | -0.0352 |
| ACTGTAAC | -0.0789 |

| Sequence | PBM E-score |
| --- | --- |
| CGGGTGCC | -0.161 |
| AGTTTTAC | 0.109 |
| CTTGACCA | -0.19 |
| CGCGTTGC | 0.185 |
| ATGGCACC | -0.0307 |
| ACGTGGTG | -0.107 |
| TGTTTGAA | 0.106 |
| AGAATTCG | 0.051 |
| GGGGGTCA | -0.432 |
| CCCACGGG | -0.247 |
| ACCAGTGC | -0.146 |
| AAGTGAGT | 0.0529 |
| CGGTAAGA | 0.0804 |
| GTGCACTA | 0.242 |
| GCTGTCAA | 0.0138 |
| AAGGAAGG | -0.134 |
| TCAGAACA | 0.0782 |
| CACTAGTC | -0.0178 |
| CAAGCTCC | -0.285 |
| AACTGTGC | -0.0663 |
| GGCACCAC | -0.0955 |
| AATTCCCT | -0.0367 |
